These are yes or no findings as the source states them, for the method shown. Some entries that bind do so weakly or less than the wild type.
Molecular target: T-STAR QUA1-KH domain (human) (UniProt O75525)
Assay: crystal structure; T-STAR constructs in complex with short RNAs (protein/RNA 1:2), sitting drop vapour diffusion at 4 °C; protein in 10 mM Tris pH 7.0, 50 mM NaCl; both purified

B1: T-STAR QUA1-KH domain (domain or fragment, human)
chain: MEEKYLPELMAEKDSLDPSFTHALRLVNQEIEKFQKGEGKDEEKYIDVVINKNMKLGQKVLIPVKQFPKFNFVGKLLGPRGNSLKRLQEETLTKMSILGKGSMRDKAKEEELRKSGEAKYFHLNDDLHVLIEVFAPPAEAYARMGHALEEIKKFLIPDYN
notes: T-STAR/SLM2, human, QUA1 and KH domains with the linker between them; by the limits of the STAR (1-183) and KH (50-160) constructs they may be 1-160 (surmised); source: E. coli Rosetta BL21 DE3, purified (Ni-NTA, TEV cleavage, size-exclusion chromatography); not shown: His tag (inferred from the Ni-NTA purification)
- binding: binds

From publication PMC4735526 (Nature Communications, 2016)
